Reference: doi:10.1101/2021.03.02.433611
These are yes or no findings as the source states them, for the method shown. In cells and extracts the contact can be indirect. Here binding means that the protein was enriched with, or labelled near, the bait; the list need not be complete.

By UniProt entry, the sequences of proteins in these tests, tags left out. Where a name states a change or a piece, a line headed by the entry shows the natural chain unless it says otherwise.
UniProt P35637: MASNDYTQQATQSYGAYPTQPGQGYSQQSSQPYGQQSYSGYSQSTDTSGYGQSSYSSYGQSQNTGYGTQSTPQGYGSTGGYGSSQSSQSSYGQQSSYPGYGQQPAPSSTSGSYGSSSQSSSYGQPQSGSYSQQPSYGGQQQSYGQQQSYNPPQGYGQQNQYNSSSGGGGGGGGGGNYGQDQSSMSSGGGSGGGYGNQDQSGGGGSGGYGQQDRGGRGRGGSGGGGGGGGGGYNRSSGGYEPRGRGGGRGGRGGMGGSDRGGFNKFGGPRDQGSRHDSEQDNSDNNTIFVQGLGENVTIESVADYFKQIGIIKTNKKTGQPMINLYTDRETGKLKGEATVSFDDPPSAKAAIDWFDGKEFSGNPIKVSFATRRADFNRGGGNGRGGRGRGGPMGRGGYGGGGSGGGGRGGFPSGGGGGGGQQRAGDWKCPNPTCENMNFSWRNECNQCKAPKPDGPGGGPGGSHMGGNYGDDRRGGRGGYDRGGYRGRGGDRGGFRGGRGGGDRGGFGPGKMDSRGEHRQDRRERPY
UniProt Q16630: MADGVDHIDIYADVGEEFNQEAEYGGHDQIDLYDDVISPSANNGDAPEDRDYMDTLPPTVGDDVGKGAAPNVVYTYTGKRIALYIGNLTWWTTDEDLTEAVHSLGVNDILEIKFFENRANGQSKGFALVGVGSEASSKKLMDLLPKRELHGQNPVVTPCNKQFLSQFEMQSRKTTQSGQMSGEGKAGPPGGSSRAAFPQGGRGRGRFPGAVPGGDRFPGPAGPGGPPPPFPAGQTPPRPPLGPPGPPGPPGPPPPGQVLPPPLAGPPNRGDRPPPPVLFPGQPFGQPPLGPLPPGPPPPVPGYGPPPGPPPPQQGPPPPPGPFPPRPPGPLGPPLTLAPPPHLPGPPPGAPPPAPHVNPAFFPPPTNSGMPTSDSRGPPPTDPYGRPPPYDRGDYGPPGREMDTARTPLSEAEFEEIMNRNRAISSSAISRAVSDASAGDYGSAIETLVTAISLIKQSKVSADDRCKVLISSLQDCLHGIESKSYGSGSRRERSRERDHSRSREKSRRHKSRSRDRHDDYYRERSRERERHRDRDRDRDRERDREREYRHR
UniProt Q99613: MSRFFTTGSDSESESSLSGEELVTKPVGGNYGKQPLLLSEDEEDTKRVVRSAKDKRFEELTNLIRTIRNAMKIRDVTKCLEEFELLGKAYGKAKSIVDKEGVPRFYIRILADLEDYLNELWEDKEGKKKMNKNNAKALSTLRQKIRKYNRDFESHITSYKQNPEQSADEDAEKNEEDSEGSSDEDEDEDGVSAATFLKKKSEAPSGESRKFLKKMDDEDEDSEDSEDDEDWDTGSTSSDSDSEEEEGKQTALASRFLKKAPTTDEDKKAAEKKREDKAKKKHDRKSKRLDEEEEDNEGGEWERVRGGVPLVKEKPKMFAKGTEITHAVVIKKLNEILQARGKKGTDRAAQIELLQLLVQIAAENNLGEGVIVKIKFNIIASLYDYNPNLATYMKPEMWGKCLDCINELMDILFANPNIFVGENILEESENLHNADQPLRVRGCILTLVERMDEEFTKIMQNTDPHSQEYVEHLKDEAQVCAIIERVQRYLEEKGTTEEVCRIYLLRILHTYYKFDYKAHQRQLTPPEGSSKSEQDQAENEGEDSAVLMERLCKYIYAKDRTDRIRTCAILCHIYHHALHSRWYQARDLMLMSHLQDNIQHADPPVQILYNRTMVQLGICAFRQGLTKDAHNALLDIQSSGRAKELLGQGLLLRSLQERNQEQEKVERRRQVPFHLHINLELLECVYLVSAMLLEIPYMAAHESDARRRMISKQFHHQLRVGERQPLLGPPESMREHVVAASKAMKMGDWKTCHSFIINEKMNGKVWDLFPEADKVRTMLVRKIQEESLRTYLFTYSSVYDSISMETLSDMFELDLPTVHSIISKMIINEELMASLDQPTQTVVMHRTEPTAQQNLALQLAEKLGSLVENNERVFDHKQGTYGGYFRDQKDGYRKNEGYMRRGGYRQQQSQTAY
UniProt O75821: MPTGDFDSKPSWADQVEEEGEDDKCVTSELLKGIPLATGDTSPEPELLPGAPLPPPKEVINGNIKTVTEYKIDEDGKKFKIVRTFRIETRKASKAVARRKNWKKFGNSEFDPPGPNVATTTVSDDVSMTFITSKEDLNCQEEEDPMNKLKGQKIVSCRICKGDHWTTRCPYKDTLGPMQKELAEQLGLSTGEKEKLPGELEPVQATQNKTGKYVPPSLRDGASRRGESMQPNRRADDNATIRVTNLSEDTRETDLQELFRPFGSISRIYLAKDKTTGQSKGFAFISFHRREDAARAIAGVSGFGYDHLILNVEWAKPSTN
UniProt O15372: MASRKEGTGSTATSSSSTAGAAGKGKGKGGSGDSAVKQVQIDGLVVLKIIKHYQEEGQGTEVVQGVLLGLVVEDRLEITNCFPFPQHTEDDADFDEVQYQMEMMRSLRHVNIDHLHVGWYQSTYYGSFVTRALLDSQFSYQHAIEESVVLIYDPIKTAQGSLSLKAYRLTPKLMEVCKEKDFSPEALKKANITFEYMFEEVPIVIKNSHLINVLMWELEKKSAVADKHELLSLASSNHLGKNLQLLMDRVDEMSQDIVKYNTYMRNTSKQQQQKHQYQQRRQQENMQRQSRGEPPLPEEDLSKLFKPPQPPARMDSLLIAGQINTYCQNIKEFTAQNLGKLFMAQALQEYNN
UniProt Q13347: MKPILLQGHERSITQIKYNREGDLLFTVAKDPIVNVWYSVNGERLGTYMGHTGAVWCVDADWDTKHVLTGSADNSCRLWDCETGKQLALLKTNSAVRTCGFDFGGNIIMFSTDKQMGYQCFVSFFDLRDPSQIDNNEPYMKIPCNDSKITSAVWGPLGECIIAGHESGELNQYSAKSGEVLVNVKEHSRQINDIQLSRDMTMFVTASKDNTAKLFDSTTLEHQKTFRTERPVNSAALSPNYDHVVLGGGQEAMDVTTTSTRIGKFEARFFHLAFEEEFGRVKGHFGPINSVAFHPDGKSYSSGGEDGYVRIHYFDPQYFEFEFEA
UniProt Q9UBQ5: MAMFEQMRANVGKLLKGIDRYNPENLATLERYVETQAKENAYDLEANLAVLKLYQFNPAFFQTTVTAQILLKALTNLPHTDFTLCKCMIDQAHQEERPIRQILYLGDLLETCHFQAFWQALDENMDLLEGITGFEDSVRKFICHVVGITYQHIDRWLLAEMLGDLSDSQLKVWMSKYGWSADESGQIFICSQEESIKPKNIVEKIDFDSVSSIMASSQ
UniProt Q9Y262: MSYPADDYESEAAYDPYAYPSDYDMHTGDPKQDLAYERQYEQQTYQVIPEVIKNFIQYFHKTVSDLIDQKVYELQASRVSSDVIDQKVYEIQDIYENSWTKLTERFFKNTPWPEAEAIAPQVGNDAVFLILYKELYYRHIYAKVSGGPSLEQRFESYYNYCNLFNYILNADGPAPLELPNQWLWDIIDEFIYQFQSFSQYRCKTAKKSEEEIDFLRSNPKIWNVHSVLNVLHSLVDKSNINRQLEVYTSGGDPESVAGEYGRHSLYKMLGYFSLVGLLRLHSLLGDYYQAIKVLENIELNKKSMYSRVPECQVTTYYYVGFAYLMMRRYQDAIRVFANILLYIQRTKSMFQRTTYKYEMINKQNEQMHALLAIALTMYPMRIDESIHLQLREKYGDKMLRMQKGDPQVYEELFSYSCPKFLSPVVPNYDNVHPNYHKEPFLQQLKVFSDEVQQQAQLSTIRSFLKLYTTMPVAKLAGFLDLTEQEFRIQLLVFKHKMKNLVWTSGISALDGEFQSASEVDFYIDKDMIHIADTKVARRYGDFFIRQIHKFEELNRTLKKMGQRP
UniProt Q9NQT5: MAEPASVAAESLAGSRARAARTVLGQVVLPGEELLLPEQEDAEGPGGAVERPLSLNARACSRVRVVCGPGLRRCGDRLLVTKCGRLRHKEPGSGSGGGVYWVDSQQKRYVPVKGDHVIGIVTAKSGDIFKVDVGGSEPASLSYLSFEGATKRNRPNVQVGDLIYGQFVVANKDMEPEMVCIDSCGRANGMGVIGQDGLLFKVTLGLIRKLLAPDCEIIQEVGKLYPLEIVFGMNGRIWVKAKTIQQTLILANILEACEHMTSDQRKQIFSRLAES
UniProt Q09161: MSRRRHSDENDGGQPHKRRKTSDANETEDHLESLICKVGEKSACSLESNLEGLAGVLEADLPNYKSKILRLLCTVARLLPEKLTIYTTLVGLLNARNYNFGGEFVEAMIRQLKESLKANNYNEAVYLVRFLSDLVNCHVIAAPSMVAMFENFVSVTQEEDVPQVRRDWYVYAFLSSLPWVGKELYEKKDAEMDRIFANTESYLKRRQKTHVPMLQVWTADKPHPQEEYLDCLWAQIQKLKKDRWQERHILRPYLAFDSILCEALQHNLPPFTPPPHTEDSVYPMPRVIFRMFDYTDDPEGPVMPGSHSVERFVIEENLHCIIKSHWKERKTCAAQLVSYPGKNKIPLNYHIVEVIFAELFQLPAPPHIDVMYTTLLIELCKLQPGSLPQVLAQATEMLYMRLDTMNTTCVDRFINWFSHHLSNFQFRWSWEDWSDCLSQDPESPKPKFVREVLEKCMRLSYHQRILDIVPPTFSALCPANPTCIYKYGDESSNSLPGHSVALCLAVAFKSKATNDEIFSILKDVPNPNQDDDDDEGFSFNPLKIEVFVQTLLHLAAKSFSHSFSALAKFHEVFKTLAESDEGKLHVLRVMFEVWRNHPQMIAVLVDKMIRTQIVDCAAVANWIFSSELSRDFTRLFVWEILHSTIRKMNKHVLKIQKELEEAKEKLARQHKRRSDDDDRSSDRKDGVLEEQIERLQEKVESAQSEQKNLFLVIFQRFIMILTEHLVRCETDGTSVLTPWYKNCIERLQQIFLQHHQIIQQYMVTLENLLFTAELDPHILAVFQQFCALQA
UniProt Q13242: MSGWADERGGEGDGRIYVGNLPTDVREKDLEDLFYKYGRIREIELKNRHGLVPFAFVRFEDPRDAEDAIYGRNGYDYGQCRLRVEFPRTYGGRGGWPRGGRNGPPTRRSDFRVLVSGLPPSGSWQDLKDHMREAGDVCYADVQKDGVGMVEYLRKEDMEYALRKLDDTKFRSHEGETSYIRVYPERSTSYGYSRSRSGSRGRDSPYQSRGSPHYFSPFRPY
UniProt Q13283: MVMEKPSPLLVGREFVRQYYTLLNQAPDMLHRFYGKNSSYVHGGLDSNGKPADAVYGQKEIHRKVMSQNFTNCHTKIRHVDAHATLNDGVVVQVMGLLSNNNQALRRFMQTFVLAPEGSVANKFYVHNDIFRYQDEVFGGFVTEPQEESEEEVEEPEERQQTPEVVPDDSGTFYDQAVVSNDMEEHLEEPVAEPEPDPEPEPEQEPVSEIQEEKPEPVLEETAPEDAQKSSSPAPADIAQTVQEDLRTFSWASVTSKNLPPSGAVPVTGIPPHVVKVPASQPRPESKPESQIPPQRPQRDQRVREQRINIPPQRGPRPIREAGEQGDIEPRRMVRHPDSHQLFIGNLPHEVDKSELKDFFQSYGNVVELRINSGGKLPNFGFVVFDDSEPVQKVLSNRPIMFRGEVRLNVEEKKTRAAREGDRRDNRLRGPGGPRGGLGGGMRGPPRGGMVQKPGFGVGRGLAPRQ
UniProt P28066: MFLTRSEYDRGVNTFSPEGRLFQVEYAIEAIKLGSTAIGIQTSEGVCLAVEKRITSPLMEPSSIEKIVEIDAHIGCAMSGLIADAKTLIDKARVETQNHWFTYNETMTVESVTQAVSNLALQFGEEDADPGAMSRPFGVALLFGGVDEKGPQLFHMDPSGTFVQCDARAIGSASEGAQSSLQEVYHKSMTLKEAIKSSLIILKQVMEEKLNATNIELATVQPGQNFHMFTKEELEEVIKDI
UniProt P49721: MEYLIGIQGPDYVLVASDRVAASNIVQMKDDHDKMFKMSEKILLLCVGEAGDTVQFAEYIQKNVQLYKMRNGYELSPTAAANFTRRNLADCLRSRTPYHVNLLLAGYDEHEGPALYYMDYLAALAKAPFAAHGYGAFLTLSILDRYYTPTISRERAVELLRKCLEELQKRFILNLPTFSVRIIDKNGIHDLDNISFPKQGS
UniProt P17980: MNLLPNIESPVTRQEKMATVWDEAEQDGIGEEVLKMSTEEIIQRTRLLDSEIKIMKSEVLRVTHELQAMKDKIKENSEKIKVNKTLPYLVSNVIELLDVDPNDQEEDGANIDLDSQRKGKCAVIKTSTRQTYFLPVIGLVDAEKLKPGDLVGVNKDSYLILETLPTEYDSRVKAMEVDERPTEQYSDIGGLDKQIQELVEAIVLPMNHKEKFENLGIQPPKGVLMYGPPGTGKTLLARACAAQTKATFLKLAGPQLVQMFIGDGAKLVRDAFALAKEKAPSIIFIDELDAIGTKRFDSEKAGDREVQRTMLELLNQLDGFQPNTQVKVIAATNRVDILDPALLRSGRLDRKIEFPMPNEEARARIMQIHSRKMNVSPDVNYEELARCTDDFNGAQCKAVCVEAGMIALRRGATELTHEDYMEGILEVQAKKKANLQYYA

biological target: FUS(R522G)-GFP (human) (UniProt P35637); assay: affinity purification with mass spectrometry

Row | binding | Molecule
1 | binds | CPSF6 (from UniProt Q16630 1-551)
2 | binds | EIF3C (from UniProt Q99613 1-913)
3 | binds | EIF3G (from UniProt O75821 1-320)
4 | binds | EIF3H (from UniProt O15372 1-352)
5 | binds | EIF3I (from UniProt Q13347 1-325)
6 | binds | EIF3K (from UniProt Q9UBQ5 1-218)
7 | binds | EIF3L (from UniProt Q9Y262 1-564)
8 | binds | EXOSC3 (from UniProt Q9NQT5 1-275)
9 | binds | NCBP1 (from UniProt Q09161 1-790)
10 | binds | SRSF9 (from UniProt Q13242 1-221)
11 | binds | CPSF1 (protein, UniProt Q10570 1-1443) MYAVYKQAHPPTGLEFSMYCNFFNNSERNLVVAGTSQLYVYRLNRDAEALTKNDRSTEGKAHREKLELAASFSFFGNVMSMASVQLAGAKRDALLLSFKDAKLSVVEYDPGTHDLKTLSLHYFEEPELRDGFVQNVHTPRVRVDPDGRCAAMLVYGTRLVVLPFRRESLAEEHEGLVGEGQRSSFLPSYIIDVRALDEKLLNIIDLQFLHGYYEPTLLILFEPNQTWPGRVAVRQDTCSIVAISLNITQKVHPVIWSLTSLPFDCTQALAVPKPIGGVVVFAVNSLLYLNQSVPPYGVALNSLTTGTTAFPLRTQEGVRITLDCAQATFISYDKMVISLKGGEIYVLTLITDGMRSVRAFHFDKAAASVLTTSMVTMEPGYLFLGSRLGNSLLLKYTEKLQEPPASAVREAADKEEPPSKKKRVDATAGWSAAGKSVPQDEVDEIEVYGSEAQSGTQLATYSFEVCDSILNIGPCANAAVGEPAFLSEEFQNSPEPDLEIVVCSGHGKNGALSVLQKSIRPQVVTTFELPGCYDMWTVIAPVRKEEEDNPKGEGTEQEPSTTPEADDDGRRHGFLILSREDSTMILQTGQEIMELDTSGFATQGPTVFAGNIGDNRYIVQVSPLGIRLLEGVNQLHFIPVDLGAPIVQCAVADPYVVIMSAEGHVTMFLLKSDSYGGRHHRLALHKPPLHHQSKVITLCLYRDLSGMFTTESRLGGARDELGGRSGPEAEGLGSETSPTVDDEEEMLYGDSGSLFSPSKEEARRSSQPPADRDPAPFRAEPTHWCLLVRENGTMEIYQLPDWRLVFLVKNFPVGQRVLVDSSFGQPTTQGEARREEATRQGELPLVKEVLLVALGSRQSRPYLLVHVDQELLIYEAFPHDSQLGQGNLKVRFKKVPHNINFREKKPKPSKKKAEGGGAEEGAGARGRVARFRYFEDIYGYSGVFICGPSPHWLLVTGRGALRLHPMAIDGPVDSFAPFHNVNCPRGFLYFNRQGELRISVLPAYLSYDAPWPVRKIPLRCTAHYVAYHVESKVYAVATSTNTPCARIPRMTGEEKEFETIERDERYIHPQQEAFSIQLISPVSWEAIPNARIELQEWEHVTCMKTVSLRSEETVSGLKGYVAAGTCLMQGEEVTCRGRILIMDVIEVVPEPGQPLTKNKFKVLYEKEQKGPVTALCHCNGHLVSAIGQKIFLWSLRASELTGMAFIDTQLYIHQMISVKNFILAADVMKSISLLRYQEESKTLSLVSRDAKPLEVYSVDFMVDNAQLGFLVSDRDRNLMVYMYLPEAKESFGGMRLLRRADFHVGAHVNTFWRTPCRGATEGLSKKSVVWENKHITWFATLDGGIGLLLPMQEKTYRRLLMLQNALTTMLPHHAGLNPRAFRMLHVDRRTLQNAVRNVLDGELLNRYLYLSTMERSELAKKIGTTPDIILDDLLETDRVTAHF
12 | binds | DAZAP1 (protein, UniProt Q96EP5 1-407) MNNSGADEIGKLFVGGLDWSTTQETLRSYFSQYGEVVDCVIMKDKTTNQSRGFGFVKFKDPNCVGTVLASRPHTLDGRNIDPKPCTPRGMQPERTRPKEGWQKGPRSDNSKSNKIFVGGIPHNCGETELREYFKKFGVVTEVVMIYDAEKQRPRGFGFITFEDEQSVDQAVNMHFHDIMGKKVEVKRAEPRDSKSQAPGQPGASQWGSRVVPNAANGWAGQPPPTWQQGYGPQGMWVPAGQAIGGYGPPPAGRGAPPPPPPFTSYIVSTPPGGFPPPQGFPQGYGAPPQFSFGYGPPPPPPDQFAPPGVPPPPATPGAAPLAFPPPPSQAAPDMSKPPTAQPDFPYGQYAGYGQDLSGFGQGFSDPSQQPPSYGGPSVPGSGGPPAGGSGFGRGQNHNVQGFHPYRR
13 | binds | CPSF7 (protein, UniProt Q8N684 1-471) MSEGVDLIDIYADEEFNQDPEFNNTDQIDLYDDVLTATSQPSDDRSSSTEPPPPVRQEPSPKPNNKTPAILYTYSGLRNRRAAVYVGSFSWWTTDQQLIQVIRSIGVYDVVELKFAENRANGQSKGYAEVVVASENSVHKLLELLPGKVLNGEKVDVRPATRQNLSQFEAQARKRECVRVPRGGIPPRAHSRDSSDSADGRATPSENLVPSSARVDKPPSVLPYFNRPPSALPLMGLPPPPIPPPPPLSSSFGVPPPPPGIHYQHLMPPPPRLPPHLAVPPPGAIPPALHLNPAFFPPPNATVGPPPDTYMKASAPYNHHGSRDSGPPPSTVSEAEFEDIMKRNRAISSSAISKAVSGASAGDYSDAIETLLTAIAVIKQSRVANDERCRVLISSLKDCLHGIEAKSYSVGASGSSSRKRHRSRERSPSRSRESSRRHRDLLHNEDRHDDYFQERNREHERHRDRERDRHH

biological target: G3BP1-GFP (UniProt Q13283); assay: affinity purification with mass spectrometry

Row | binding | Molecule
14 | binds | PSMA5 (from UniProt P28066 1-241)
15 | binds | PSMA6 (from UniProt P60900 1-246)
16 | binds | PSMA7 (from UniProt O14818 1-248)
17 | binds | PSMB2 (from UniProt P49721 1-201)
18 | binds | PSMB5 (from UniProt P28074)
19 | binds | PSMC3 (from UniProt P17980 1-439)
20 | binds | NUP85 (protein, UniProt Q9BW27 1-656) MEELDGEPTVTLIPGVNSKKNQMYFDWGPGEMLVCETSFNKKEKSEMVPSCPFIYIIRKDVDVYSQILRKLFNESHGIFLGLQRIDEELTGKSRKSQLVRVSKNYRSVIRACMEEMHQVAIAAKDPANGRQFSSQVSILSAMELIWNLCEILFIEVAPAGPLLLHLLDWVRLHVCEVDSLSADVLGSENPSKHDSFWNLVTILVLQGRLDEARQMLSKEADASPASAGICRIMGDLMRTMPILSPGNTQTLTELELKWQHWHEECERYLQDSTFATSPHLESLLKIMLGDEAALLEQKELLSNWYHFLVTRLLYSNPTVKPIDLHYYAQSSLDLFLGGESSPEPLDNILLAAFEFDIHQVIKECSIALSNWWFVAHLTDLLDHCKLLQSHNLYFGSNMREFLLLEYASGLFAHPSLWQLGVDYFDYCPELGRVSLELHIERIPLNTEQKALKVLRICEQRQMTEQVRSICKILAMKAVRNNRLGSALSWSIRAKDAAFATLVSDRFLRDYCERGCFSDLDLIDNLGPAMMLSDRLTFLGKYREFHRMYGEKRFADAASLLLSLMTSRIAPRSFWMTLLTDALPLLEQKQVIFSAEQTYELMRCLEDLTSRRPVHGESDTEQLQDDDIETTKVEMLRLSLARNLARAIIREGSLEGS
21 | binds | NUP107 (protein, UniProt P57740 1-925) MDRSGFGEISSPVIREAEVTRTARKQSAQKRVLLQASQDENFGNTTPRNQVIPRTPSSFRQPFTPTSRSLLRQPDISCILGTGGKSPRLTQSSGFFGNLSMVTNLDDSNWAAAFSSQRSGLFTNTEPHSITEDVTISAVMLREDDPGEAASMSMFSDFLQSFLKHSSSTVFDLVEEYENICGSQVNILSKIVSRATPGLQKFSKTASMLWLLQQEMVTWRLLASLYRDRIQSALEEESVFAVTAVNASEKTVVEALFQRDSLVRQSQLVVDWLESIAKDEIGEFSDNIEFYAKSVYWENTLHTLKQRQLTSYVGSVRPLVTELDPDAPIRQKMPLDDLDREDEVRLLKYLFTLIRAGMTEEAQRLCKRCGQAWRAATLEGWKLYHDPNVNGGTELEPVEGNPYRRIWKISCWRMAEDELFNRYERAIYAALSGNLKQLLPVCDTWEDTVWAYFRVMVDSLVEQEIQTSVATLDETEELPREYLGANWTLEKVFEELQATDKKRVLEENQEHYHIVQKFLILGDIDGLMDEFSKWLSKSRNNLPGHLLRFMTHLILFFRTLGLQTKEEVSIEVLKTYIQLLIREKHTNLIAFYTCHLPQDLAVAQYALFLESVTEFEQRHHCLELAKEADLDVATITKTVVENIRKKDNGEFSHHDLAPALDTGTTEEDRLKIDVIDWLVFDPAQRAEALKQGNAIMRKFLASKKHEAAKEVFVKIPQDSIAEIYNQCEEQGMESPLPAEDDNAIREHLCIRAYLEAHETFNEWFKHMNSVPQKPALIPQPTFTEKVAHEHKEKKYEMDFGIWKGHLDALTADVKEKMYNVLLFVDGGWMVDVREDAKEDHERTHQMVLLRKLCLPMLCFLLHTILHSTGQYQECLQLADMVSSERHKLYLVFSKEELRKLLQKLRESSLMLLDQGLDPLGYEIQL
22 | binds | NUPL2 (protein, UniProt O15504 1-423) MAICQFFLQGRCRFGDRCWNEHPGARGAGGGRQQPQQQPSGNNRRGWNTTSQRYSNVIQPSSFSKSTPWGGSRDQEKPYFSSFDSGASTNRKEGFGLSENPFASLSPDEQKDEKKLLEGIVKDMEVWESSGQWMFSVYSPVKKKPNISGFTDISPEELRLEYHNFLTSNNLQSYLNSVQRLINQWRNRVNELKSLNISTKVALLSDVKDGVNQAAPAFGFGSSQAATFMSPGFPVNNSSSDNAQNFSFKTNSGFAAASSGSPAGFGSSPAFGAAASTSSGISTSAPAFGFGKPEVTSAASFSFKSPAASSFGSPGFSGLPASLATGPVRAPVAPAFGGGSSVAGFGSPGSHSHTAFSKPSSDTFGNSSISTSLSASSSIIATDNVLFTPRDKLTVEELEQFQSKKFTLGKIPLKPPPLELLNV
